Data source: PubChem BioAssay AID504793 (Drosophila RNAi Screening Center, 2011)
The screen tested about 23,000 reagents; this is an unselected part of those with a known target gene and a result. Over the whole deposit, 62 (0.27%) were called active. 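Calls come from follow-up tests whose scores are not deposited, so confirmed genes may have low counts here; counts are not normalised per plate.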 Raw values vary from plate to plate and are shown uncorrected. No sequences are given here.

- Aim: 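Genes required for cells to halt at G2/M after double-strand DNA breaks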 (primary screen)
- Cell system: Drosophila S2R+ cells
- Reagents: long dsRNA against Drosophila genes, about 0.25 µg dsRNA per well
- Timing: 4 days of dsRNA, then 4 hours of drug before read-out
- Challenge: doxorubicin 0.5 µM for 4 hours to cause double-strand breaks, in cells also given a low, harmless dose of dsRNA against nbs to sensitise the assay
- Measured: 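Mitotic index as the number of phospho-histone H3-positive cells in each well following doxorubicin, given as raw counts without normalisation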
- Reading the numbers: mitotic cells: higher = more cells in mitosis, weaker G2 arrest
- Rule for the call: 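a call needs confirmation in secondary tests, with other dsRNAs and a check of mitotic timing without damage, not just a high primary count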
- Meaning of the calls: active = confirmed in follow-up tests; inactive = not confirmed

What is on record for MED10 (Mediator complex subunit 10) [DRSC10474]?
mitotic cells, replicate 1: 9; call: inactive

With CG14252 [DRSC14747], how do the results read?
mitotic cells, replicate 1: 11; call: inactive

With CG32354 [DRSC10763], how do the results read?
mitotic cells, replicate 1: 4; call: inactive

How did the screen score CG32354 [DRSC10775]?
mitotic cells, replicate 1: 10; call: inactive

What did the screen give for CG32354 [DRSC21919]?
mitotic cells, replicate 1: 4; call: inactive

What did the screen give for CG12814 [DRSC14552]?
mitotic cells, replicate 1: 8; call: inactive

How did the screen score CG12814 [DRSC14553]?
mitotic cells, replicate 1: 11; call: inactive

For Fcp1 (TFIIF-interacting CTD phosphatase) [DRSC04121], what does the deposit list?
mitotic cells, replicate 1: 1; call: inactive

How did the screen score Fcp1 (TFIIF-interacting CTD phosphatase) [DRSC26715]?
mitotic cells, replicate 1: 11; call: inactive

How did the screen score CG14406 [DRSC19592]?
mitotic cells, replicate 1: 5; call: inactive

What is on record for Gar1 (Gar1 ribonucleoprotein) [DRSC04441]?
mitotic cells, replicate 1: 4; call: inactive

Which result is listed for Gar1 (Gar1 ribonucleoprotein) [DRSC25331]?
mitotic cells, replicate 1: 3; call: inactive

What did the screen give for CG9953 [DRSC11106]?
mitotic cells, replicate 1: 5; call: inactive

What is on record for NimB4 (Nimrod B4) [DRSC01884]?
mitotic cells, replicate 1: 9; call: inactive

What did the screen give for NimB4 (Nimrod B4) [DRSC24265]?
mitotic cells, replicate 1: 4; call: inactive

For parvin [DRSC19468], what does the deposit list?
mitotic cells, replicate 1: 5; call: inactive

What is on record for parvin [DRSC28956]?
mitotic cells, replicate 1: 6; call: inactive

With gro (groucho) [DRSC16962], what was measured?
mitotic cells, replicate 1: 9; call: inactive

What is on record for CG1909 [DRSC17150]?
mitotic cells, replicate 1: 3; call: inactive

With CG6484 [DRSC06991], what does the deposit list?
mitotic cells, replicate 1: 10; call: inactive

For CG6484 [DRSC28087], how do the results read?
mitotic cells, replicate 1: 6; call: inactive

With Nufip [DRSC10397], what does the deposit list?
mitotic cells, replicate 1: 7; call: inactive

Which result is listed for l(2)SH0834 (lethal (2) SH0834) [DRSC02854]?
mitotic cells, replicate 1: 3; call: inactive

Which result is listed for Prosbeta5 (Proteasome beta5 subunit) [DRSC07517]?
mitotic cells, replicate 1: 151; call: inactive

What is on record for Prosbeta5 (Proteasome beta5 subunit) [DRSC28939]?
mitotic cells, replicate 1: 77; call: inactive

For AP-1gamma (Adaptor Protein complex 1, gamma subunit) [DRSC18433], what was measured?
mitotic cells, replicate 1: 16; call: inactive

With CG11417 [DRSC18581], what does the deposit list?
mitotic cells, replicate 1: 3; call: inactive

With CG4480 [DRSC02750], what does the deposit list?
mitotic cells, replicate 1: 5; call: inactive

Which result is listed for CG4691 [DRSC01950]?
mitotic cells, replicate 1: 3; call: inactive

What is on record for CG4691 [DRSC27902]?
mitotic cells, replicate 1: 7; call: inactive

With CG7631 [DRSC01873], what does the deposit list?
mitotic cells, replicate 1: 10; call: inactive

For CG14282 [DRSC14763], what does the deposit list?
mitotic cells, replicate 1: 12; call: inactive

What is on record for CG14282 [DRSC26234]?
mitotic cells, replicate 1: 3; call: inactive

What did the screen give for Myo28B1 (Myosin 28B1) [DRSC03375]?
call: inactive

With Myo28B1 (Myosin 28B1) [DRSC28780], what was measured?
mitotic cells, replicate 1: 4; call: inactive

A run of entries of the results above, for reference:
CG6484 [DRSC28087]: mitotic cells, replicate 1 = 6; call = inactive
Nufip [DRSC10397]: mitotic cells, replicate 1 = 7; call = inactive
l(2)SH0834 (lethal (2) SH0834) [DRSC02854]: mitotic cells, replicate 1 = 3; call = inactive
